Data as given in PubChem BioAssay AID1224828 (NIAID, 2016).

- Screen: 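Find genes required for NF-kappaB p65 moving into the nucleus after LPS in mouse macrophages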 (primary screen)
- Cell system: mouse RAW264.7 G9 macrophage reporter cells (GFP-p65, Tnf promoter-mCherry)
- Knock-down reagent: siRNA pool against mouse genes, 100 nM
- Duration: 2 days siRNA transfection, then 40 min LPS before fixation
- Conditions: LPS (Salmonella minnesota R595) at 10 ng/ml
- Measured: 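Imaged p65 nuclear translocation ratio, normalised to the plate median, converted to robust z-scores and averaged across two replicates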
- Scale: p65 translocation robust z-score: higher = more nuclear NF-kappaB p65 after LPS than the plate median; nuclear/cytoplasmic p65 ratio: higher = more nuclear NF-kappaB p65
- Call rule: 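Called active when z exceeds 3.3 or falls under -1.56 (median of Tlr4 controls), giving activity score of at least 50; no calls for control wells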
- Meaning of the calls: active = hit (p65 shift raised or lowered); inactive = no clear change
Shown is one part, drawn at random, of about 17,000 reagents. 762 of all reagents (4.5%) were called active. 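Active calls include both raised and lowered p65 entry, mostly lowered; wells with fewer than 50 cells lack a z-score.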 The raw values are shown without normalisation.

Target gene,PubChem SID,p65 translocation robust z-score,"nuclear/cytoplasmic p65 ratio, rep 1","nuclear/cytoplasmic p65 ratio, rep 2",low cell count flag,Call
Adgrl4 (adhesion G protein-coupled receptor L4),SID315477224,-0.34,1.37,1.63,enough cells to score,inactive
Ykt6 (YKT6 v-SNARE homolog (S. cerevisiae)),SID315471519,,1.28,1.35,fewer than 50 cells per well; well left out of scoring,inactive
Tmem131 (transmembrane protein 131),SID315471345,0.79,1.71,1.63,enough cells to score,inactive
Spata6 (spermatogenesis associated 6),SID315473328,1.04,1.56,1.35,enough cells to score,inactive
Hsd17b4 (hydroxysteroid (17-beta) dehydrogenase 4),SID315467312,-1.1,1.31,1.21,enough cells to score,inactive
Hsdl1 (hydroxysteroid dehydrogenase like 1),SID315474575,0.41,1.4,1.52,enough cells to score,inactive
Senp2 (SUMO/sentrin specific peptidase 2),SID315475210,,1.48,1.2,fewer than 50 cells per well; well left out of scoring,inactive
"Tpm1 (tropomyosin 1, alpha)",SID315469804,,1.46,1.54,fewer than 50 cells per well; well left out of scoring,inactive
"Sec11c (SEC11 homolog C, signal peptidase complex subunit)",SID315472341,,1.62,1.13,fewer than 50 cells per well; well left out of scoring,inactive
Tlr12 (toll-like receptor 12),SID315481836,,1.16,1.08,fewer than 50 cells per well; well left out of scoring,inactive
Mertk (MER proto-oncogene tyrosine kinase),SID315467905,0.35,1.66,1.48,enough cells to score,inactive
Cd209e (CD209e antigen),SID315477239,-0.22,1.46,1.86,enough cells to score,inactive
Nudc (nudC nuclear distribution protein),SID315468270,-1.55,1.34,1.2,enough cells to score,inactive
Mmab,SID315475501,-0.8,1.4,1.18,enough cells to score,inactive
Flad1 (flavin adenine dinucleotide synthetase 1),SID315481199,-0.87,1.35,1.41,enough cells to score,inactive
Fosl1 (fos-like antigen 1),SID315466737,0.87,1.55,1.48,enough cells to score,inactive
"Haus4 (HAUS augmin-like complex, subunit 4)",SID315478233,-1.14,1.34,1.68,enough cells to score,inactive
Ubl5 (ubiquitin-like 5),SID315472269,-1.32,1.44,1.21,enough cells to score,inactive
Pyurf (Pigy upstream reading frame),SID315472454,-2.18,1.25,1.17,enough cells to score,active
Pantr1,SID315472349,,1.54,1.19,fewer than 50 cells per well; well left out of scoring,inactive
"Scnn1g (sodium channel, nonvoltage-gated 1 gamma)",SID315469124,1.24,1.61,1.85,enough cells to score,inactive
H2bc18 (H2B clustered histone 18),SID315481047,-1.74,1.35,1.31,enough cells to score,active
Cldn8 (claudin 8),SID315471235,,1.28,1.42,fewer than 50 cells per well; well left out of scoring,inactive
Creb5 (cAMP responsive element binding protein 5),SID315478951,0.41,1.59,1.38,enough cells to score,inactive
Creb5 (cAMP responsive element binding protein 5),SID315481251,-3.16,1.01,1.09,enough cells to score,active
Vmn1r215 (vomeronasal 1 receptor 215),SID315477328,,1.45,1.2,fewer than 50 cells per well; well left out of scoring,inactive
Usp17lb (ubiquitin specific peptidase 17-like B),SID315481813,1.26,1.51,1.64,enough cells to score,inactive
Dync2i1 (dynein 2 intermediate chain 1),SID315478164,-0.33,1.55,1.48,enough cells to score,inactive
H3f3a (H3.3 histone A),SID315467135,0.93,1.86,1.61,enough cells to score,inactive
Phf11a (PHD finger protein 11A),SID315478238,-0.72,1.31,1.19,enough cells to score,inactive
Slc41a2,SID315481674,,1.11,1.46,fewer than 50 cells per well; well left out of scoring,inactive
"Ms4a4d (membrane-spanning 4-domains, subfamily A, member 4D)",SID315472536,-0.55,1.71,1.49,enough cells to score,inactive
"Oprm1 (opioid receptor, mu 1)",SID315468341,-1.29,1.33,1.49,enough cells to score,inactive
Lrfn4,SID315478443,1.32,1.92,1.74,enough cells to score,inactive
Sprr2b (small proline-rich protein 2B),SID315469442,-1.09,1.26,1.12,enough cells to score,inactive
Olfr242 (olfactory receptor 242),SID315481960,0.19,1.59,1.49,enough cells to score,inactive
Selenom (selenoprotein M),SID315477034,0.26,1.41,1.31,enough cells to score,inactive
Anxa4 (annexin A4),SID315465422,0.6,1.72,1.7,enough cells to score,inactive
Sgsm1 (small G protein signaling modulator 1),SID315471021,,1.43,1.16,fewer than 50 cells per well; well left out of scoring,inactive
Prr11 (proline rich 11),SID315480939,0,1.57,1.86,enough cells to score,inactive
Exoc3l2 (exocyst complex component 3-like 2),SID315474979,1.79,1.56,1.74,enough cells to score,inactive
Cpt2 (carnitine palmitoyltransferase 2),SID315466101,1.05,1.67,1.47,enough cells to score,inactive
"Xpnpep1 (X-prolyl aminopeptidase (aminopeptidase P) 1, soluble)",SID315477219,0.8,1.5,1.73,enough cells to score,inactive
Or10ag2 (olfactory receptor family 10 subfamily AG member 2),SID315480036,-0.19,1.66,1.52,enough cells to score,inactive
Zfp51 (zinc finger protein 51),SID315470121,-0.38,1.32,1.24,enough cells to score,inactive
Olfml1 (olfactomedin-like 1),SID315479742,,1.87,1.86,fewer than 50 cells per well; well left out of scoring,inactive
Zfp64 (zinc finger protein 64),SID315470130,-0.98,1.41,1.33,enough cells to score,inactive
"Cltrn (collectrin, amino acid transport regulator)",SID315471779,,1.07,1.13,fewer than 50 cells per well; well left out of scoring,inactive
Ppdpf,SID315472477,,1.21,1.04,fewer than 50 cells per well; well left out of scoring,inactive
Fsaf1 (40S small subunit processome assembly factor 1),SID315472491,-0.03,1.5,1.35,enough cells to score,inactive
Gdpd5 (glycerophosphodiester phosphodiesterase domain containing 5),SID315479090,0.36,1.58,1.96,enough cells to score,inactive
"Ano1 (anoctamin 1, calcium activated chloride channel)",SID315476298,-0.1,1.36,1.57,enough cells to score,inactive
Map3k2 (mitogen-activated protein kinase kinase kinase 2),SID315470382,,1.67,1.42,fewer than 50 cells per well; well left out of scoring,inactive
Lingo1 (leucine rich repeat and Ig domain containing 1),SID315479249,0.26,1.72,1.62,enough cells to score,inactive
Or5t9 (olfactory receptor family 5 subfamily T member 9),SID315480050,-0.43,1.66,1.46,enough cells to score,inactive
Flacc1 (flagellum associated containing coiled-coil domains 1),SID315476742,-0.82,1.5,1.48,enough cells to score,inactive
Cysltr1 (cysteinyl leukotriene receptor 1),SID315471921,0.9,1.68,1.67,enough cells to score,inactive
"H2-T3 (histocompatibility 2, T region locus 3)",SID315467131,2.09,1.93,1.88,enough cells to score,inactive
"Capg (capping actin protein, gelsolin like)",SID315465743,-0.91,1.43,1.52,enough cells to score,inactive

6 entries already listed, arranged by “nuclear/cytoplasmic p65 ratio, rep 1”, ascending:
Target gene,PubChem SID,p65 translocation robust z-score,"nuclear/cytoplasmic p65 ratio, rep 1","nuclear/cytoplasmic p65 ratio, rep 2",low cell count flag,Call
"Cltrn (collectrin, amino acid transport regulator)",SID315471779,,1.07,1.13,fewer than 50 cells per well; well left out of scoring,inactive
Ppdpf,SID315472477,,1.21,1.04,fewer than 50 cells per well; well left out of scoring,inactive
"Ano1 (anoctamin 1, calcium activated chloride channel)",SID315476298,-0.1,1.36,1.57,enough cells to score,inactive
Fsaf1 (40S small subunit processome assembly factor 1),SID315472491,-0.03,1.5,1.35,enough cells to score,inactive
Gdpd5 (glycerophosphodiester phosphodiesterase domain containing 5),SID315479090,0.36,1.58,1.96,enough cells to score,inactive
Map3k2 (mitogen-activated protein kinase kinase kinase 2),SID315470382,,1.67,1.42,fewer than 50 cells per well; well left out of scoring,inactive
